{"source": "patent US20230295227A1", "about": "(ANTAROS TRACER AB, priority 2020, published 2023)", "experiment": "general procedure: Fmoc solid-phase peptide synthesis; Rink Amide AM resin (0.64 mmol/g) for C-terminal amides; preloaded Wang resin (0.50 mmol/g) for C-terminal acids; HBTU/NMM; PyBOP/DIEA or HBTU/DIEA for linker and chelator; DIC/Oxyma for Compoun", "conditions": "whole synthesis, analytical RP-HPLC, UV 214 nm trace, scale of the general procedure approximately 30 μmol", "note": "Some peptides are written in HELM: one residue between dots, names in brackets for other building blocks, links after the first $."}
{"substance": "PEPTIDE1{[DOTA].[O2Oc].L.R.E.L.H.L.N.N.N}$$$$V2.0", "values": [{"measurement": "final HPLC purity", "value": 95, "unit": "%"}]}
{"substance": "NOTA-NH—(CH2CH2O)2-CH2—C(O)-LRELHLNNN—OH", "values": [{"measurement": "final HPLC purity", "value": 95, "unit": "%"}]}
{"substance": "PEPTIDE1{[DOTA].[O2Oc].L.R.E.L.H.L.N.N.N.[am]}$$$$V2.0", "values": [{"measurement": "final HPLC purity", "value": 99.1, "unit": "%"}]}
{"substance": "DOTA-NH—(CH2CH2O)2—CH2—C(O)-L-R-E-L-H-L-N—N-n-OH", "values": [{"measurement": "final HPLC purity", "value": 89.3, "unit": "%"}]}
{"substance": "PEPTIDE1{[DOTA].[O2Oc].L.R.E.L.H.L.N.A.N.[am]}$$$$V2.0", "values": [{"measurement": "final HPLC purity", "value": 100, "unit": "%"}]}
{"substance": "DOTA-NH—(CH2CH2O)3—CH2—C(O)-L-R-E-L-H-L-N—N—N—OH", "values": [{"measurement": "final HPLC purity", "value": 98.7, "unit": "%"}]}
{"substance": "DOTA-NH—(CH2CH2O)2—CH2—C(O)-L-R-E-L-H—V-N—N—N—OH", "values": [{"measurement": "final HPLC purity", "value": 98.7, "unit": "%"}]}
{"substance": "H2N-L-R-E-L-H-L-N—N—N—K(DOTA-NH—(CH2CH2O)2—CH2—C(O))—NH2", "values": [{"measurement": "final HPLC purity", "value": 95.1, "unit": "%"}]}
{"substance": "PEPTIDE1{[DOTA].[O2Oc].L.R.E.L.H.L.N.A.N}$$$$V2.0", "values": [{"measurement": "final HPLC purity", "value": 98.1, "unit": "%"}]}
{"substance": "DOTA-L-R-E-L-H-L-N—N—N—OH", "values": [{"measurement": "final HPLC purity", "value": 99.3, "unit": "%"}]}
